Data as given in patent US20170204380A1, “GLYCOSYL TRANSFERASES AND THEIR USES” (TECHNISCHE UNIVERSITAT MUNCHEN, priority 2014, published 2017).
Some of these results come from one statement about several compounds together.

By UniProt entry, the sequences of proteins in these tests, tags left out.
UniProt F6H0R6, entry or part of it: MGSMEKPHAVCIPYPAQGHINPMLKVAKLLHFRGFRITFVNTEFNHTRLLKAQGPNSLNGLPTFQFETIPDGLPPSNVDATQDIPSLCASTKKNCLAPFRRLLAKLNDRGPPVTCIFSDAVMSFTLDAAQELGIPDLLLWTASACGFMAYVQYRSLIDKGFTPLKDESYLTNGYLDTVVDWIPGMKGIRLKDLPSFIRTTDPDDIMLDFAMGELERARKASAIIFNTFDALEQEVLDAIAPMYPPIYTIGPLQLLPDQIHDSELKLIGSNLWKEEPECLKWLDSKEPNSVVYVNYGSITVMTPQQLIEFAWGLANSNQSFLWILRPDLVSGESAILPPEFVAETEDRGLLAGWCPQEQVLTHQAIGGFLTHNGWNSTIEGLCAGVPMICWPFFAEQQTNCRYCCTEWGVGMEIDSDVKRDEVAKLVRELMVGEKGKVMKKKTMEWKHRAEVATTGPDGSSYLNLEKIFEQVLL
UniProt F6HTJ4, entry or part of it: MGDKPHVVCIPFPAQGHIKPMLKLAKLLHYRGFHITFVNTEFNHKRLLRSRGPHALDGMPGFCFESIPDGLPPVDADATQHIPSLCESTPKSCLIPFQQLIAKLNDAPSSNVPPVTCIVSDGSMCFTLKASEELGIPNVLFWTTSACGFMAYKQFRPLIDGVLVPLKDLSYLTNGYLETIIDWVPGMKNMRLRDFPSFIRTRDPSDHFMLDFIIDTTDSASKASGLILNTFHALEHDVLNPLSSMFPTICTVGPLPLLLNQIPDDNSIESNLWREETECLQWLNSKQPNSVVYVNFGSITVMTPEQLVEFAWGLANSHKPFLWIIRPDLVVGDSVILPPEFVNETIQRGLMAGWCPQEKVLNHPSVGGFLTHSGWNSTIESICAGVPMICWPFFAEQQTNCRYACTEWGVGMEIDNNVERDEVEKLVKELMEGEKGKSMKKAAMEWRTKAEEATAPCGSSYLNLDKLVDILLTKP

Tests used:
VvGT14a = VvGT14a (Vitis vinifera, UniProt F6H0R6); assay: Substrate screening, radiochemical analysis with UDP-[14C]glucose; type: biochemical; conditions: relative to conversion of geraniol (100%)
Protocol: (§1) In the initial screening, each reaction mixture (200 μL in total) contained Tris-HCl buffer (100 mM, pH 8, 10 mM 2-mercaptoethanol), 37 pmol UDP-[^14C]glucose (0.01 μCi, Biotrend, Köln, Germany), substrate (50 μL of a 1 mg/mL stock solution) and purified protein (0.5-0.8 μg/μL). […] The organic phase was mixed with 2 mL Pro Flow P+ cocktail (Meridian Biotechnologies Ltd., Epsom, UK) and radioactivity was determined by liquid scintillation counting (LSC, Tri-Carb 2800TR, Perkin Elmer, Waltham Mass., USA). Additionally, negative controls without substrate were performed.
(§2) The recombinant proteins were expressed with an N-terminal GST-tag, affinity purified and verified by SDS-PAGE and Western Blot using GST-specific antibody.

VvGT16 = VvGT16 (Vitis vinifera, UniProt F6HTJ4); assay: as above; type: biochemical; conditions: relative to conversion of benzyl alcohol (100%)
Protocol: as §1, §2

Structure (SMILES)	relative activity (VvGT14a)	relative activity (VvGT16)
Oc1cc(O)c2cc(O)c(-c3ccc(O)c(O)c3)[o+]c2c1 [cyanidin]	< 1%	
CCCCCCO [hexanol]	> 80%	> 80%
O=c1c(O)c(-c2ccc(O)cc2)oc2cc(O)cc(O)c12 [kaempferol]	< 1%	
CCCCCCCCO [octanol]	> 80%	
